Our source for the binding values is article PMC8368198.

This assay has as its target T1, 3x FLAG-tagged wild-type LONP1 (human ATP-dependent mitochondrial Lon protease) (human) (UniProt P36776).
T1 sequence: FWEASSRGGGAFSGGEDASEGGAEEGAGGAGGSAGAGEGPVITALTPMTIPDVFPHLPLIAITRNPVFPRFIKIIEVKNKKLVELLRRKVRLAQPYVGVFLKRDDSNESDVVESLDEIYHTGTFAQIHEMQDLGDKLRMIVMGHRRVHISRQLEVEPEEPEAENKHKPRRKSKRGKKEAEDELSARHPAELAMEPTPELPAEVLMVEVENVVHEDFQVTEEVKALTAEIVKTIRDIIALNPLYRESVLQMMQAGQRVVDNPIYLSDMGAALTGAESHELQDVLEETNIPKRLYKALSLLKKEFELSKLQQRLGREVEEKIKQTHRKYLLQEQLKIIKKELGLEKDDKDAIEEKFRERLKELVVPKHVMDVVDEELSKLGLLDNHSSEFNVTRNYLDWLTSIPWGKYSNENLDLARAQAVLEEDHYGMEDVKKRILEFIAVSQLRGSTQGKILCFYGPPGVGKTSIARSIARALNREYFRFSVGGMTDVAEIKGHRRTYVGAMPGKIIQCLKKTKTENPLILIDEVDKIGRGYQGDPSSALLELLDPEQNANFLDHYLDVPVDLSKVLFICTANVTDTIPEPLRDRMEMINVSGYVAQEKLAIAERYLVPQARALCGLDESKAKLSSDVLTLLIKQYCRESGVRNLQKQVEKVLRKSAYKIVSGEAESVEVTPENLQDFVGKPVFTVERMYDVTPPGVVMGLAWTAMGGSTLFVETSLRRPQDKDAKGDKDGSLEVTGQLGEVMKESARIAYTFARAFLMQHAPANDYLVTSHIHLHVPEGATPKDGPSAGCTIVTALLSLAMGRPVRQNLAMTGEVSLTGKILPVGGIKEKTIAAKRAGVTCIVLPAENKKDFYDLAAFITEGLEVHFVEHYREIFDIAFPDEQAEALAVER
The experiment in a line: co-IP; HEK293 cells expressing 3xFLAG-LONP1 (1 ng/mL doxycycline, 3 d) treated with the reversible crosslinker DSP (2 mM, on ice, 30 min), extracted in RIPA buffer; anti-FLAG-tag mAb magnetic beads, 90 min at 4 °C, eluted with FLAG peptides; DSP cleaved with DTT; immunoblot.

Results are given in words; binding and its absence hold for the method and conditions named. In cells and extracts the contact can be indirect. Binding calls can cover weak binding; strength is not graded here. Tags and fused reporters may be left off the sequences shown.

As to “translocase of the inner mitochondrial membrane 44 (TIMM44) (human (endogenous in HEK293))”, the binding result is reported as “binds”.
